Test results taken from article PMC8304497.
Results are given in words; binding and its absence hold for the method and conditions named. Binding seen in cells or lysates may run through a third protein. These calls come from enrichment with a bait or labelling near it, and not all partners need be listed.

B1: Ataxin-10 (protein, UniProt P28658 1-475)
chain: MAAPRMPPSRLSGIMVPAPIQDLEALRALTALFKEQRNRETAPRTIFQRVLDILKKSTHAVELACRDPSQVEHLASSLQLITECFRCLRNACIECSVNQNSIRNLDTIGVAVDLVLLFRELRVEQDSLLTAFRCGLQFLGNVASRNEESQSIVWVHAFPELFMSCLNHPDKKIVAYCSMILFTSLNAERMKDLEENLNIAINVIEAHQKHPASEWPFLIISDHFLKSPELVEAMYGKLSNQERITLLDIVIAKLVGEEQLTKDDISIFVRHAELIANSFMDQCRNVLKLTSEPHTEDKEALVTIRLLDVLCEMTSNTELLGYLQVFPGLMERVIDVLRVIHEVGKESTNIFSPSDSLKAEGDIEHMTEGFKSHLIRLIGNLCYKNKENQDKVNELDGIPLILDSSNIDDNNPFMMQWVVYAVRNLTEDNSQNQDVIAKMEEQGLADASLLKKMGFEIEKSGDKLILKSNNDIPPP
B2: Ywhag (protein, UniProt P61982 1-247)
chain: MVDREQLVQKARLAEQAERYDDMAAAMKNVTELNEPLSNEERNLLSVAYKNVVGARRSSWRVISSIEQKTSADGNEKKIEMVRAYREKIEKELEAVCQDVLSLLDNYLIKNCSETQYESKVFYLKMKGDYYRYLAEVATGEKRATVVESSEKAYSEAHEISKEHMQPTHPIRLGLALNYSVFYYEIQNAPEQACHLAKTAFDDAIAELDTLNEDSYKDSTLIMQLLRDNLTLWTSDQQDDDGGEGNN
B3: Haptoglobin (protein, UniProt Q61646 19-347)
chain: VELGNDAMDFEDDSCPKPPEIANGYVEHLVRYRCRQFYRLRAEGDGVYTLNDEKQWVNTVAGEKLPECEAVCGKPKHPVDQVQRIIGGSMDAKGSFPWQAKMISRHGLTTGATLISDQWLLTTAKNLFLNHSETASAKDITPTLTLYVGKNQLVEIEKVVLHPNHSVVDIGLIKLKQRVLVTERVMPICLPSKDYIAPGRVGYVSGWGRNANFRFTDRLKYVMLPVADQDKCVVHYENSTVPEKKNLTSPVGVQPILNEHTFCAGLTKYQEDTCYGDAGSAFAIHDMEEDTWYAAGILSFDKSCAVAEYGVYVRATDLKDWVQETMAKN
B4: Neurofilament medium polypeptide (protein, UniProt P08553 1-848)
chain: MSYTLDSLGNPSAYRRVTETRSSFSRVSGSPSSGFRSQSWSRGSPSTVSSSYKRSALAPRLAYSSAMLSSAESSLDFSQSSSLLNGGSGGDYKLSRSNEKEQLQGLNDRFAGYIEKVHYLEQQNKEIEAEIQALRQKQASHAQLGDAYDQEIRELRATLEMVNHEKAQVQLDSDHLEEDIHRLKERFEEEARLRDDTEAAIRALRKDIEESSMVKVELDKKVQSLQDEVAFLRSNHEEEVADLLAQIQASHITVERKDYLKTDISTALKEIRSQLECHSDQNMHQAEEWFKCRYAKLTEAAEQNKEAIRSAKEEIAEYRRQLQSKSIELESVRGTKESLERQLSDIEERHNHDLSSYQDTIQQLENELRGTKWEMARHLREYQDLLNVKMALDIEIAAYRKLLEGEETRFSTFSGSITGPLYTHRQPSVTISSKIQKTKVEAPKLKVQHKFVEEIIEETKVEDEKSEMEETLTAIAEELAASAKEEKEEAEEKEEEPEAEKSPVKSPEAKEEEEEGEKEEEEEGQEEEEEEDEGVKSDQAEEGGSEKEGSSEKDEGEQEEEEGETEAEGEGEEAEAKEEKKIEGKVEEVAVKEEIKVEKPEKAKSPMPKSPVEEVKPKPEAKAGKGEQKEEEKVEEEKKEVTKESPKEEKVEKKEEKPKDVADKKKAESPVKEKAVEEVITISKSVKVSLEKDTKEEKPQPQEKVKEKAEEEGGSEEEGSDRSPQESKKEDIAINGEVEGKEEEEQETQEKGSGREEEKGVVTNGLDVSPAEEKKGEDSSDDKVVVTKKVEKITSEGGDGATKYITKSVTVTQKVEEHEETFEEKLVSTKKVEKVTSHAIVKEVTQGD
B5: Ras-related protein Rab-33A (protein, UniProt P97950 1-237)
chain: MAQPILGHGSLQPASAAGLASLELDSSMDQYVQIRIFKIIVIGDSNVGKTCLTFRFCGGTFPDKTEATIGVDFREKTVEIEGEKIKVQVWDTAGQERFRKSMVEHYYRNVHAVVFVYDVTKMTSFTNLKMWIQECNGHAVPPLVPKVLVGNKCDLREQIQVPSNLALKFADAHNMLLFETSAKDPKESQNVESIFMCLACRLKAQKSLLYRDAERQQGKVQKLEFSQEANGKASCPC
B6: Inter-alpha-trypsin inhibitor heavy chain H3 (protein, UniProt Q61704 34-649)
chain: SLPEGVVDGIEVYSTKISCKVTSRFAHNVVTTRAVNRADTAKEVSFDVELPKTAFITNFTLTIDGVTYPGNVKEKEVAQKQYEKAVSQGKTAGLVKASGRKLEKFTVSVNVAAGSKVTFELTYEELLKRNKGKYEMYLKVQPKQLVRHFEIDAHIFEPQGISMLDAEASFITNDLLGSALTKSFSGKKGHVSFKPSLDQQRSCPTCTDSLLNGDFTIVYDVNRESPGNVQIVNGYFVHFFAPQGLPVVPKNIVFVIDVSGSMSGRKIQQTREALLKILDDVKEDDYLNFILFSTDVTTWKDHLVQATPANLKEAKTFVKNIHDQSMTNINDGLLKGIEMLNKAREDHTVPERSTSIIIMLTDGDANTGESRPEKIQENVRNAIGGKFPLYNLGFGNNLNYNFLETLALENHGLARRIYEDSDANLQLQGFYEEVANPLLTNVEVEYPENAILDLTRNSYPHFYDGSEIVVAGRLVDRNMDNFKADVKGHGALNDLTFTEEVDMEEMDAALKEQGYIFGDYIERLWAYLTIEQLLEKRKNAKGDEKENITAEALDLSLKYHFVTPLTSMVVTKPEDNEDQTSIADKPGEEAIAETTTMSFLTTQQSSQSPYYYVDGD
B7: Ubiquitin-protein ligase E3B (enzyme, UniProt Q9ES34 1-1070)
chain: MFTVSQTSRAWFIDRARQAREERLVQKERERSAVTIQALVRSFLCRRRLHRDIRKEIDEFFSADESGSSKRSALCIFKIARRLLFICKTTEDSERLEKLCRSILNSMDAENEPKVWYVSLALSKDLTLLWIKQIKSILWHCCELLGQLKPEILQDSRLITLYLTMLVTFTDTSTWKILRGKGESLRPALNHICANIMGHLNQRGLYSVLQVLLTRGLARPRPCLSKGMLTAAFSLALRPVVAAQFSDNLMRPFIIHVMSVPALVAHLSTVAPERLGVLESHDMLRKFIVFLRDRDRCRDACESLEGCHTLCLMGNLLHLGSLSLRLLEEEMDGFVSALTQMLCYCQKYVAQKKSNLTHWHPVLGWFSQPVDYGLNDSMYLITKQLQFLWAVPLIRILFSDILSRKLLEHAEPAPVQPQPSSPQTVLPVKSLLKRAFQKSASVRNILRPVGGRRVDSAEVRKVCNICVLYQTSLTTLTQIRLQILTGLTYLDDLLPKLWAFICELGPHGGLKLFLECLNNDTGESKQLLAMLMLFCDCSRHLITILDDIEVYEEQISFKLEELVTISSFLNSFVFKMIWDGIVENAKGETLELFQSVHGWLMVLYERDCRRRFAPEDHWLRRDLKPGVLFQELDKDRRRAQLVLQHIPHVVPHKNRVLLFRNMVIKEKEKLGLVETSSASPHVTHITIRRSRMLEDGYEQLRQLSQHAMKGVIRVKFVNDLGVDEAGIDQDGVFKEFLEEIIKRVFDPALNLFKTTSGDERLYPSPTSYIHENYLQLFEFVGKMLGKAVYEGIVVDVPFASFFLSQMLGHHHSVFYSSVDELPSLDSEFYKNLTSIKRYDGDIADLGLTLSYDEDVMGQLVCHELVPGGKTIPVTDENKISYIHLMAHFRMHTQIKNQTAALISGFRSIIKPEWIRMFSTPELQRLISGDNAEIDLEDLKKHTVYYGGFHGSHRVIIWLWDILASDFTPEERAMFLKFVTSCSRPPLLGFAYLKPPFSIRCVEVSDDQDTGDTLGSVLRGFFTIRKREPGGRLPTSSTCFNLLKLPNYSKKSVLREKLRYAISMNTGFELS

molecular target: T1, Neuronal cell adhesion molecule 2 (NCAM2) (mouse (endogenous in cerebral cortex)) (UniProt O35136); assay: affinity purification with mass spectrometry; NCAM2 precipitated from the membrane fraction (lysis buffer with 1% Triton X-100, 150 mM NaCl) of postnatal mouse cortex with magnetic beads conjugated with anti-NCAM2.1 (EB06991) or anti-NCAM2 (AF778), o/n at 4 °C; urea elution, trypsin, LC-MS/MS, FDR ≤ 0.01%; control: non-conjugated beads
T1 sequence: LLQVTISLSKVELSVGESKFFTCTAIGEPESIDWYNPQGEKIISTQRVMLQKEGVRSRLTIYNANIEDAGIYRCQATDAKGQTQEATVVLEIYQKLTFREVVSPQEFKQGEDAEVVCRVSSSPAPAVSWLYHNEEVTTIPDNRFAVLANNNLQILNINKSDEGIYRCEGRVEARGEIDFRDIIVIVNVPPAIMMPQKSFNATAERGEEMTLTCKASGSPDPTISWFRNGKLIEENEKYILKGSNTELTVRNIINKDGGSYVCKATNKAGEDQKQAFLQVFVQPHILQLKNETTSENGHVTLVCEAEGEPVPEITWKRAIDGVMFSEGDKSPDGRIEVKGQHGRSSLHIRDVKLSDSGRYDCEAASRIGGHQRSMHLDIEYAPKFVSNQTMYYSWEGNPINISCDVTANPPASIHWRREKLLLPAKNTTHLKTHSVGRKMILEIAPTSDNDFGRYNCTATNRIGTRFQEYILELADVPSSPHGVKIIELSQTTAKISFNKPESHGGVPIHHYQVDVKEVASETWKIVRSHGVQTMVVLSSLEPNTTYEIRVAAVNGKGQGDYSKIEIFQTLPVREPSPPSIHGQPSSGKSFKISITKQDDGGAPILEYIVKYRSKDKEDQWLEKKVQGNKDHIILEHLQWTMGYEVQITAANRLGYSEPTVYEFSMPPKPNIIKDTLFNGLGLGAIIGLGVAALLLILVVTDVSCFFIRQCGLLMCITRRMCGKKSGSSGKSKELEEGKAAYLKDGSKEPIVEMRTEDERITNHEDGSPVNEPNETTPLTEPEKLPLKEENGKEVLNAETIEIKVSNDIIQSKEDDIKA

binding, binds:
B1
B2
B3
B4
B5
B6
B7
